Reference: paper doi:10.1101/2020.11.17.385245
Results are given in words; binding and its absence hold for the method and conditions named. In cells and extracts the contact can be indirect. Some entries that bind do so weakly or less than the wild type. For some of these results: Where a sequence is shown, tags or fusion partners need not be part of it.

The chains behind the UniProt entries cited, without tags or fusion partners. Where a name states a change or a piece, a line headed by the entry shows the natural chain unless it says otherwise. Residues count along the entry.
UniProt A4D1B5, whole entry: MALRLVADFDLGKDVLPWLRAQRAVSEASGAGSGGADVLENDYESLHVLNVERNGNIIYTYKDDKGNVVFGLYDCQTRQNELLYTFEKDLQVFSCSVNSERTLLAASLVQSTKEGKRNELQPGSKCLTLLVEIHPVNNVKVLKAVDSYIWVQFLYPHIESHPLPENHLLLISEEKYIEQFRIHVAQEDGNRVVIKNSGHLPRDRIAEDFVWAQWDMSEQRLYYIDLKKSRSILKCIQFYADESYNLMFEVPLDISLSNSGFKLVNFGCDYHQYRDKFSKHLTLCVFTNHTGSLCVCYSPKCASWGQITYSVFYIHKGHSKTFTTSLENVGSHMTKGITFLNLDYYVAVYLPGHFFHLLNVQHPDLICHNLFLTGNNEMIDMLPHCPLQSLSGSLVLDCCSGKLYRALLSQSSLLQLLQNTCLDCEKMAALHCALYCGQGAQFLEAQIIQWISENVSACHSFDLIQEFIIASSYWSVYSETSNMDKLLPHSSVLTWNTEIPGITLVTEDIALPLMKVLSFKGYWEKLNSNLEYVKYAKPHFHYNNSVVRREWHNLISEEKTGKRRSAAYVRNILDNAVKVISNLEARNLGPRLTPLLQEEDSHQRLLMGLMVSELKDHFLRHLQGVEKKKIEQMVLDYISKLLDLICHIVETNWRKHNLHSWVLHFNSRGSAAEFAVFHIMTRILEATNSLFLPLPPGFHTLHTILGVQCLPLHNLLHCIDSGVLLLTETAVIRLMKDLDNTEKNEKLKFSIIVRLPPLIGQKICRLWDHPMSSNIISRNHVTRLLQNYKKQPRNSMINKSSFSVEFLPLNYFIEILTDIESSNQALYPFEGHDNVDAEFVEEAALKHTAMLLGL
UniProt A4D1B5, 733-854: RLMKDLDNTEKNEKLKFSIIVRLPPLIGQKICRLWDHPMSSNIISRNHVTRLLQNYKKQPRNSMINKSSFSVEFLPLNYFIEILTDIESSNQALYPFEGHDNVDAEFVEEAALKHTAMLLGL

Experiments:
Experiment in all cases: co-IP
[1] = molecular target: T1, endogenous Fe65 (A549 cells) (human (endogenous in A549)) (UniProt O00213)
T1 sequence: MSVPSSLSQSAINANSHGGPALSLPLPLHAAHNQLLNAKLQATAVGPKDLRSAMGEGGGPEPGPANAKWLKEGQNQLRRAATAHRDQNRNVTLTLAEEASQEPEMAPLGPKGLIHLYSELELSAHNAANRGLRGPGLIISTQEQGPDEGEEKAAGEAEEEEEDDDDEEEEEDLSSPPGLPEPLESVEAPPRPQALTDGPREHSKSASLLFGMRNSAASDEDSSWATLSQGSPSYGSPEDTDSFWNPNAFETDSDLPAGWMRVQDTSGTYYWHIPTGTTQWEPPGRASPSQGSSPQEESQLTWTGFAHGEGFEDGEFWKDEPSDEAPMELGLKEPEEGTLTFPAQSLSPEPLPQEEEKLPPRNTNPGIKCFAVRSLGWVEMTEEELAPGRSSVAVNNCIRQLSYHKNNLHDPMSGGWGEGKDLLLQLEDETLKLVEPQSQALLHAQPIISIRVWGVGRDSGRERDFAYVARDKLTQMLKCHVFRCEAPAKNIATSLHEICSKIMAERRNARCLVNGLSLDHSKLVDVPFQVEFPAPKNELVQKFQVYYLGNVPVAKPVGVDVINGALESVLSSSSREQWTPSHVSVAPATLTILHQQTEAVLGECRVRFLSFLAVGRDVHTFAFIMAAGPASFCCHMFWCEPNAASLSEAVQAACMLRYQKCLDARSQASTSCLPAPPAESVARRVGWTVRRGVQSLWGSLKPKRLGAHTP

[2] = molecular target: T2, full length Fe65 (Flag tagged) (UniProt O00213)
T2 sequence: T1 sequence

[3] = molecular target: T3, Myc-Flag tagged Phb (prohibitin) (UniProt P35232)
T3 sequence: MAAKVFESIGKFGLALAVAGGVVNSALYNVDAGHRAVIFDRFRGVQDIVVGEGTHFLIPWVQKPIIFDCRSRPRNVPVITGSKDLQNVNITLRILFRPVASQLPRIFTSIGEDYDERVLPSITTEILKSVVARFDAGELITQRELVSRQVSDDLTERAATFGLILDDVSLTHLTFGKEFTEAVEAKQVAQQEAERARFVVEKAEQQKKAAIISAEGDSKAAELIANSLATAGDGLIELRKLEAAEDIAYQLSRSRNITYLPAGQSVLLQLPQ

binding [2] | Substance | further results
 | endogenous GSAP (from UniProt A4D1B5 1-854) | binding [1]: binds
binds | human GSAP-16k with HA tag (GSAP carboxyl-terminal 16K domain) (from UniProt A4D1B5 733-854) (domain or fragment) | 
binds | full length GSAP (HA tagged), expressed in HEK293T cells (from UniProt A4D1B5 1-854) | 
 | GSAP (HA-tagged), co-IP with PHB (Fig. S1D) (from UniProt A4D1B5 1-854) | binding [3]: binds
